Binding data for three substances are collected here from PMC9374740.

The chains behind the UniProt entries cited, without tags or fusion partners.
UniProt P61289: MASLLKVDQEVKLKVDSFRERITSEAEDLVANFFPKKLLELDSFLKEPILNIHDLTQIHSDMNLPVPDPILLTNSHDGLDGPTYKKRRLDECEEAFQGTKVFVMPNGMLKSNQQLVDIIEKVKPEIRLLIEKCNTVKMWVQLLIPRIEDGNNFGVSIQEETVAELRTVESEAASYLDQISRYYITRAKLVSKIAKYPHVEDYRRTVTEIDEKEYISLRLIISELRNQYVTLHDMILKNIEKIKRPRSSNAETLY

These are yes or no findings as the source states them, for the method shown. Binding seen in cells or lysates may run through a third protein. Some entries that bind do so weakly or less than the wild type.

Experiment [1] addresses Flag-tagged PA28γ (proteasomal activator 28 gamma) (human) (UniProt P61289). Description: co-IP; 293T cells co-transfected with two tagged plasmids; lysis in IP buffer (0.1% SDS, 1% Triton, 150 mM NaCl, 0.5 mM EDTA, 1 mM DTT); anti-Flag affinity gel, HA antibody or Myc antibody, overnight at 4 °C; immunoblot.
Experiment [2] shares this target. Description: co-IP; exogenous BRAF, MEK1 and PA28γ expressed together; immunoprecipitation with the Flag, HA or Myc antibody; immunoblot.
Experiment [3] deals with Flag-PA28γ stably overexpressed in epithelial cells (OE-PA28γ lentivirus) (human) (UniProt P61289). Nature of the experiment: co-IP; stable PA28γ-overexpressing epithelial cell lines, with or without knock-down of BRAF (mix of three siRNAs); PA28γ immunoprecipitates blotted for MEK1.
The target in experiment [4] is endogenous PA28γ (human (endogenous in epithelial cells; HOK and HaCat are the epithelial lines of the paper)) (UniProt P61289). Nature of the experiment: co-IP; endogenous proteins; lysates incubated with 4 μg of anti-PA28γ, anti-BRAF or anti-MEK1 antibody overnight at 4 °C, then protein A + G agarose for 2 h; immunoblot.
Experiment [5] deals with HA-tagged MEK1 (UniProt Q02750). Nature of the experiment: co-IP; 293T cells co-transfected with two tagged plasmids; lysis in IP buffer (0.1% SDS, 1% Triton, 150 mM NaCl, 0.5 mM EDTA, 1 mM DTT); anti-Flag affinity gel, HA antibody or Myc antibody, overnight at 4 °C; immunoblot. Background: In western blotting, separated proteins are transferred to a membrane and probed.
Experiment [6] shares this target. Description: co-IP; exogenous BRAF, MEK1 and PA28γ expressed together; immunoprecipitation with the Flag, HA or Myc antibody; immunoblot.

On to “HA-tagged MEK1 (from UniProt Q02750 1-393)”, for which the binding entry in experiment [1] and in experiment [2] was “binds” in each case.
Turning to “endogenous MEK1 (from UniProt Q02750 1-393)”, the binding result in experiment [3] and in experiment [4] was “binds” throughout.
On to “Flag-tagged PA28γ (proteasomal activator 28 gamma) (from UniProt P61289 1-254)”, for which the binding result in the experiment with HA-tagged MEK1 [5] and in the experiment with HA-tagged MEK1 [6] was “binds” each time.
